From paper PMC10032003
No constants are given. Whether binding was seen depends on the method and setting. For part of these data: Binding seen in cells or lysates may run through a third protein. Some entries that bind do so weakly or less than the wild type. For part of these data: Sequences can lack the tags named with a protein.

Chains of the proteins cited; added tags and fusions are not shown.
UniProt P27986: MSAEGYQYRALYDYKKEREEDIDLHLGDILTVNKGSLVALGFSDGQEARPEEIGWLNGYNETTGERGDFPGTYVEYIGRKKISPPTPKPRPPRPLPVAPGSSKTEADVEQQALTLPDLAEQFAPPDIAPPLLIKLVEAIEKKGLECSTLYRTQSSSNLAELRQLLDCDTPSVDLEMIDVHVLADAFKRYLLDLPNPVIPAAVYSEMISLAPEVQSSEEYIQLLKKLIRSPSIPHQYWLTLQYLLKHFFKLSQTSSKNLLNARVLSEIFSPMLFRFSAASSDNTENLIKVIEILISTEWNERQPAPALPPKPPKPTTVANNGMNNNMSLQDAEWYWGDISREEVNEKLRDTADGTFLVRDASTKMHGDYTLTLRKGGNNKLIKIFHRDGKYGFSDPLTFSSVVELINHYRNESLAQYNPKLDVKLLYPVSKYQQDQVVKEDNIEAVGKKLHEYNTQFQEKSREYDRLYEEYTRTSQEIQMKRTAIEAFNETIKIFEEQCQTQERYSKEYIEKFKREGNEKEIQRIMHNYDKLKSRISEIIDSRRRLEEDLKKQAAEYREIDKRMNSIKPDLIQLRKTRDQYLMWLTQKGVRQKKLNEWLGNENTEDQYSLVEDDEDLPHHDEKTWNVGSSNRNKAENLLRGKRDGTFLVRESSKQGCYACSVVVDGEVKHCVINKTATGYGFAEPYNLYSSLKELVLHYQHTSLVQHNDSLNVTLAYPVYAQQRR

Assays:
[1] = target: T1, GST-tagged SEPT2-WT (UniProt Q15019); experiment: pull-down; purified GST-tagged SEPT2-WT or SEPT2-K74R mixed with anti-GST antibody-conjugated beads and cell lysate (0.3% Nonidet P40 IP lysis buffer), 4 °C, 12 h; five washes with 0.5% Nonidet P40 IP lysis buffer; Western blot; only the target purified
T1 sequence: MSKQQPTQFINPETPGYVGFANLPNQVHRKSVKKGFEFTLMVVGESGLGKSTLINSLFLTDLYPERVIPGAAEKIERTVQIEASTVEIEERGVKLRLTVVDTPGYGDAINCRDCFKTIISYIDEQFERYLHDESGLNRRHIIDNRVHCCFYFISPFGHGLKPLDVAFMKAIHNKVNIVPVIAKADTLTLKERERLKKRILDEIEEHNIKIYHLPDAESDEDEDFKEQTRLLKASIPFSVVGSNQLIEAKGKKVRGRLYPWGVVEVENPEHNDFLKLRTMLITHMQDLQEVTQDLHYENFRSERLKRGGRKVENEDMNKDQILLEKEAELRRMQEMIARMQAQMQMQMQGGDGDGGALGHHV

[2] = target: T2, GST-tagged SEPT2-K74R (UniProt Q15019); experiment: as above
T2 sequence: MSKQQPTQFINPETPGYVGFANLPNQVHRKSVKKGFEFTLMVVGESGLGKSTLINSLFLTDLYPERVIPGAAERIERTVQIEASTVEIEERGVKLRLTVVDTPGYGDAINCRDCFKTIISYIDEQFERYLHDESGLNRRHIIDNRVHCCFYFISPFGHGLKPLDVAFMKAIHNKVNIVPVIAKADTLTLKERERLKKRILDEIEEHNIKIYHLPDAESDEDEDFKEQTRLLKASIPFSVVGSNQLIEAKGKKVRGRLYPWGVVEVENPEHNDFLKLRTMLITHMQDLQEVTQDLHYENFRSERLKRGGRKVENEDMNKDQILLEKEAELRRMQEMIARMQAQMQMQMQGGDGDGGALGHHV

[3] = target: T3, SEPT2-K74R (in the whole-cell lysate of the co-IP with P85α) (UniProt Q15019); experiment: co-IP; whole-cell lysates immunoprecipitated with an anti-SEPT2 antibody; SEPT2 WT against K74R
T3 sequence: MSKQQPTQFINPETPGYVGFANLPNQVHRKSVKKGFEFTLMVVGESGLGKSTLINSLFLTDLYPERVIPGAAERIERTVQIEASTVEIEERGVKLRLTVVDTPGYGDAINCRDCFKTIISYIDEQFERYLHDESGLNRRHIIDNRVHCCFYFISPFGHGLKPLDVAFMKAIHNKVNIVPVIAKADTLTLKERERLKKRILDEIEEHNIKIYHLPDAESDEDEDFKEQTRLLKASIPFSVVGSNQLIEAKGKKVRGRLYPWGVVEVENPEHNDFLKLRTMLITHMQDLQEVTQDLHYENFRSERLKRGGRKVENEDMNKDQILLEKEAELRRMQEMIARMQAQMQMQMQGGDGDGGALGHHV

[4] = target: T4, SEPT2 (wild type, in the whole-cell lysate of the co-IP with P85α) (UniProt Q15019); experiment: as above
T4 sequence: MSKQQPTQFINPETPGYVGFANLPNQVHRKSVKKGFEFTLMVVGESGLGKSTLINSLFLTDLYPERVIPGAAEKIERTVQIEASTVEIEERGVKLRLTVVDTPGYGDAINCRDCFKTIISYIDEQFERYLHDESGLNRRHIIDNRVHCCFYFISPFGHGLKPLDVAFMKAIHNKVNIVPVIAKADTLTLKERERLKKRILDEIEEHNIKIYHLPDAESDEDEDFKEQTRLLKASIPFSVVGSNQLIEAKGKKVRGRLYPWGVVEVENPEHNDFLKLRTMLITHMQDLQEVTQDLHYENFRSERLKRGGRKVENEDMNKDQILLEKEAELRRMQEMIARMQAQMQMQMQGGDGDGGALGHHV

[5] = target: T5, Flag-SIRT2 (UniProt Q8IXJ6); experiment: co-IP; whole-cell lysates immunoprecipitated with control IgG and anti-Flag antibody; blots with anti-SEPT2 and anti-Flag (Flag-SIRT2)
T5 sequence: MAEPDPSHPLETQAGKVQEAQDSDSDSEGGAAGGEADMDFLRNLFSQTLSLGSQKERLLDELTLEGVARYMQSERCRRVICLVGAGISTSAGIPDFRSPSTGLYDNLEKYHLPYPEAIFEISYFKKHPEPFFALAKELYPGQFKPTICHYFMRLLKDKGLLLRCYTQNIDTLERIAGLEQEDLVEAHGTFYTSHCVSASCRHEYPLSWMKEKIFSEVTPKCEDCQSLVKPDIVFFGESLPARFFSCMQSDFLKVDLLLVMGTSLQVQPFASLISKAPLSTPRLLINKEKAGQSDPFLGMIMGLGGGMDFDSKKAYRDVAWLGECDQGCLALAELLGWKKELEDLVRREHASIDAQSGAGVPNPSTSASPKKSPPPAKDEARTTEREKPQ

[6] = target: T6, GST-tagged SIRT2 (UniProt Q8IXJ6); experiment: pull-down; purified GST-tagged SIRT2 mixed with purified recombinant Flag-SEPT2 and anti-GST antibody-conjugated beads, 4 °C, 12 h; five washes with 0.5% Nonidet P40 IP lysis buffer; Western blot; both purified
T6 sequence: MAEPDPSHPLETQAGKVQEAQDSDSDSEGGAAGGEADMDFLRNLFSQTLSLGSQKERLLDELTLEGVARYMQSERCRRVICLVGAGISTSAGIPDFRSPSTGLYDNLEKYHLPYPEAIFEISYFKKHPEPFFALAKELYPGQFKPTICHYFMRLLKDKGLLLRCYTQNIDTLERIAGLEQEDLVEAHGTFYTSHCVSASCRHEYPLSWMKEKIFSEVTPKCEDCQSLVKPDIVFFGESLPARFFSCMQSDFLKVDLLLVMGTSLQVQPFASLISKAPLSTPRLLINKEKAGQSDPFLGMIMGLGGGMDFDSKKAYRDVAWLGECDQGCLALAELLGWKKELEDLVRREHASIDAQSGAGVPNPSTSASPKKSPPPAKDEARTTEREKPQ

P85α (from UniProt P27986 1-724) was tested, and the binding [1] was “binds”, the binding [2] was “binds” and the binding [3] was “binds”. The binding [4] was “binds”.

B1: SEPT2 (in the lysate of the co-IP with Flag-SIRT2) (protein, UniProt Q15019 1-361)
chain: MSKQQPTQFINPETPGYVGFANLPNQVHRKSVKKGFEFTLMVVGESGLGKSTLINSLFLTDLYPERVIPGAAEKIERTVQIEASTVEIEERGVKLRLTVVDTPGYGDAINCRDCFKTIISYIDEQFERYLHDESGLNRRHIIDNRVHCCFYFISPFGHGLKPLDVAFMKAIHNKVNIVPVIAKADTLTLKERERLKKRILDEIEEHNIKIYHLPDAESDEDEDFKEQTRLLKASIPFSVVGSNQLIEAKGKKVRGRLYPWGVVEVENPEHNDFLKLRTMLITHMQDLQEVTQDLHYENFRSERLKRGGRKVENEDMNKDQILLEKEAELRRMQEMIARMQAQMQMQMQGGDGDGGALGHHV
With B1 the binding [5] was “binds”.

B2: recombinant Flag-SEPT2 (SEPT2 WT) (protein, UniProt Q15019 1-361)
chain: MSKQQPTQFINPETPGYVGFANLPNQVHRKSVKKGFEFTLMVVGESGLGKSTLINSLFLTDLYPERVIPGAAEKIERTVQIEASTVEIEERGVKLRLTVVDTPGYGDAINCRDCFKTIISYIDEQFERYLHDESGLNRRHIIDNRVHCCFYFISPFGHGLKPLDVAFMKAIHNKVNIVPVIAKADTLTLKERERLKKRILDEIEEHNIKIYHLPDAESDEDEDFKEQTRLLKASIPFSVVGSNQLIEAKGKKVRGRLYPWGVVEVENPEHNDFLKLRTMLITHMQDLQEVTQDLHYENFRSERLKRGGRKVENEDMNKDQILLEKEAELRRMQEMIARMQAQMQMQMQGGDGDGGALGHHV
B2 was tested, and the binding [6] was “binds”.
